What all share (type): cell-based
In one test the test system is HepG2 cells. As to the kind of experiment: MTT antiproliferative assay, HepG2 cells. As to conditions: Homo sapiens, HepG2, read-out: IC50 ± SD HepG2. For orientation: Tetrazolium dyes change colour on reduction, which living cells bring about.
In another test the test system is HCT116 cells. As to the kind of experiment: MTT antiproliferative assay, HCT116 cells. To be noted: Homo sapiens, HCT-116, read-out: IC50 ± SD HCT116.
Test [1] deals with normal human fibroblast cell line (WI-38). As to the kind of experiment: MTT cytotoxicity assay, normal human fibroblast cell line WI-38. As to conditions: WI-38, read-out: IC50 ± SD WI-38.

The structures appear in SMILES notation.

The IC50 is the concentration needed to halve the response being measured. As to `CC[C@H](CO)Nc1nc(NCc2ccccc2)c2ncn(C(C)C)c2n1` [Roscovitine, reference compound], the figures for the IC50 (with HepG2 cells; in the test on HCT116 cells; in test [1]) were 13.8 ± 1.15 µM, 12.2 ± 1.17 µM and 17.3 µM, respectively.

Values taken from PMC10674233, “Design, Synthesis, In Vitro, and In Silico Studies of New N^5-Substituted-pyrazolo[3,4-d]pyrimidinone Derivatives as Anticancer CDK2 Inhibitors” (Pharmaceuticals, 2023).
